Source: patent publication US20180030144A1

Legend:
[1] = target: human CD73 expressed at the cell surface (human); assay: flow cytometry titration on MDA-MB-231 cells
[2] = target: human CD73 expressed at the cell surface (human); assay: flow cytometry titration on MDA-MB-231 cells (endogenous CD73), median of fluorescence
[3] = target: cynomolgus CD73 expressed on a recombinant host cell line (cynomolgus); assay: flow cytometry titration on cynomolgus CD73-expressing recombinant host cells
[4] = target: human CD73 expressed at the cell surface (human); assay: flow cytometry titration on human CD73-expressing recombinant host cells
[5] = target: cynomolgus CD73 expressed on a recombinant host cell line (cynomolgus); assay: flow cytometry titration on a cynomolgus-CD73-expressing recombinant host cell line, median of fluorescence
[6] = target: human CD73 expressed at the cell surface (human); assay: flow cytometry titration on a human-CD73-expressing recombinant host cell line, median of fluorescence
[7] = target: human CD73 expressed at the cell surface (human); assay: flow cytometry on MDA-MB-231 cells, with or without APCP (Example 4)
[8] = target: human CD73 expressed at the cell surface (human); assay: flow cytometry on MDA-MB-231 cells, with or without 200 µM APCP
[9] = target: human CD73 expressed at the cell surface (human); assay: flow cytometry titration on HEK293T cells transfected with wild type human CD73, mean of fluorescence
[10] = target: human CD73 expressed at the cell surface (human); assay: flow cytometry titration on cells expressing wild type human CD73

Measured: binding

B1: antibody 6E1 (antibody, human IgG1, V domains shown)
VH: EFQLQQSGPELVKPGASVKVSCKASGYAFTSYNMYWVKQSHGKRLEWIGYIDPYNGGSSYNQKFKGKATLTVDKSSSTAYMHLNNLTSEDSAVYYCARGYNNYKAWFAYWGQGTLVTVSA
VL: SIVMTQTPKFLLVSAGDRVTITCKASQSVTNDVAWYQQKPGQSPKLLIYYASNRYTGVPDRFTGSGYGTDFTFTISTMQAEDLAVYFCQQDYSSLTFGAGTKLELK
binds: [1] | [2] | [3] | [4] | [5] | [6] | [7] | [8]

B2: antibody 8C7 (antibody, human IgG1, V domains shown)
VH: EVQLQQSGPELVKPGASVKVSCKASGYAFASYNMNWVKQSHGKSLDWIGYIDPYNGGSSYNLTFKGKATLTVDKSSTTAYMHLNSLTSEDSAVYYCARGYGNYKAWFAYWGQGTLVTVSA
VL: SIVMTPTPKFLLVSAGDRVTITCKASQSVSNDVAWYQQKPGQSPKLLIYYASTRYTGVPDRFTGSGYGTDFTFTISTVQAEDLAVYFCQQDYSSLTFGAGTKLELKR
binds: [1] | [2] | [3] | [4] | [5] | [6] | [7] | [8]

B3: antibody 11E1 (antibody, human IgG1, V domains shown)
VH: EIQLQQSGPELVKPGASVKVSCKASGYAFTSYNMYWVKQSHGKSLEWIGYIDPYNGGTSYNQKFKGKATLTVDKSSSTAYMHLNSLTSEDSAVYYCARGYGNYKAWFAYWGQGTLVTVSA
VL: DAVMTQTPKFLLVSAGDRVTITCKASQSVTNDVAWYQQKPGQSPKLLIYYASNRYTGVPDRFTGSGYGTDFTFTISTVQAEDLAVYFCQQDYSSLTFGAGTKLELK
binds: [1] | [2] | [3] | [4] | [5] | [6] | [7] | [8]

B4: antibody 3C12 (antibody, human IgG1, V domains shown)
VH: QIQLQQSGPELVKPGASVKVSCKASGYAFASYNMNWVKQSHGKSLDWIGYIDPYNGGSSYNLTFKGKATLTVDKSSTTAYMHLNSLTSEDSAVYYCARGYGNYKAWFAYWGQGTLVTVSA
VL: DVVMTQTPKFLLVSAGDRVTITCKASQSVSNDVAWYQQKPGQSPKLLIYYASTRYTGVPDRFTGSGYGTDFTFTISTVQAEDLAVYFCQQDYSSLTFGAGTKLELKR
binds: [1] | [2] | [3] | [4] | [5] | [6] | [9] | [7] | [10] | [8]

These are yes or no findings as the source states them, for the method shown. Binding can be weak; no strength is given.
